The text below walks through data of PMC3852661, “Structural basis of SUFU–GLI interaction in human Hedgehog signalling regulation” (Acta Crystallographica Section D: Biological Crystallography, 2013).

Amino acid sequences for entries named in this document (tags omitted). A change or cut given only in a name is not applied to a line headed by its entry.
UniProt P08151: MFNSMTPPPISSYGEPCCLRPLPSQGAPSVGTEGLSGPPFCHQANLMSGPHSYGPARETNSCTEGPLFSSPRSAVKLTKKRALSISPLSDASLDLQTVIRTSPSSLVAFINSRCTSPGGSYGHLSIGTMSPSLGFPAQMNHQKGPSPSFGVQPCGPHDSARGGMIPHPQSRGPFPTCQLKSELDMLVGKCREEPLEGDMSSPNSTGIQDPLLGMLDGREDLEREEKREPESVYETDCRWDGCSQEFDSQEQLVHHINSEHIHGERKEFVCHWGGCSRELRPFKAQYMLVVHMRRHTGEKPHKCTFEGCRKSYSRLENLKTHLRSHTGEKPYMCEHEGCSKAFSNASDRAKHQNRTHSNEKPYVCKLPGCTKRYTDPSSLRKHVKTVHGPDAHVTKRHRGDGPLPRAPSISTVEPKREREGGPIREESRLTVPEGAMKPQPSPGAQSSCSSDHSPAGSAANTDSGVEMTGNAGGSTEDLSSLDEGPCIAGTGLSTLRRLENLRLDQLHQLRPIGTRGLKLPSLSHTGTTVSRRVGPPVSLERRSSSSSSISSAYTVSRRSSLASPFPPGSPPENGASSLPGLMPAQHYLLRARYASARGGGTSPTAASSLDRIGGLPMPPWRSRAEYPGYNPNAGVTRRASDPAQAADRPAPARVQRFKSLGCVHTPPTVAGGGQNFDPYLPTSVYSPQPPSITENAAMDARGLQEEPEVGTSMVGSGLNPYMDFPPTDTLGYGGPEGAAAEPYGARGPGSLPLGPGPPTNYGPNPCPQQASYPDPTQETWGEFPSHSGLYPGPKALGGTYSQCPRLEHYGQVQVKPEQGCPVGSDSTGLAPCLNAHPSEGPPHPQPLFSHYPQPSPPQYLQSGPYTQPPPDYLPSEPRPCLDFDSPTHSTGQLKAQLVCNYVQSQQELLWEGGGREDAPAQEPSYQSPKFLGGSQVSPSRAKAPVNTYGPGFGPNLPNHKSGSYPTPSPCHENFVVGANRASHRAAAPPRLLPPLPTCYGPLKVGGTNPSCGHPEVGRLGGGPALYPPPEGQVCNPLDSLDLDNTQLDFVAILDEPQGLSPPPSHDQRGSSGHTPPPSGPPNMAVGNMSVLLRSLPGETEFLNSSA
UniProt Q9UMX1: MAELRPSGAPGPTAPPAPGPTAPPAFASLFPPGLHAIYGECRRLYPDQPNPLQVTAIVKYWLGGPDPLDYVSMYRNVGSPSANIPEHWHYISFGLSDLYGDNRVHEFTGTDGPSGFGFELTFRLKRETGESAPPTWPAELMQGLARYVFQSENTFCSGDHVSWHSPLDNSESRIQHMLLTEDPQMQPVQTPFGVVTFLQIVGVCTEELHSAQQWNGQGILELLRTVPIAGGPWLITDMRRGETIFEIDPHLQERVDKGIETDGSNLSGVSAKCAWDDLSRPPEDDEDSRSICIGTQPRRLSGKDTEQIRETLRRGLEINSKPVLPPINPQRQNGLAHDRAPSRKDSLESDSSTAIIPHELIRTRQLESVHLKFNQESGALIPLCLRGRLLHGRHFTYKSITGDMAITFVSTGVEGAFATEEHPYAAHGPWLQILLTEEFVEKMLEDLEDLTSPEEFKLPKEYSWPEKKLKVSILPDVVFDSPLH

These are yes or no findings as the source states them, for the method shown. In cells and extracts the contact can be indirect. Binding calls can cover weak binding; strength is not graded here.

The target of this assay is C-terminally FLAG-tagged GLI1 (human) (UniProt P08151). Description: co-IP; Cos-7 cells transfected separately with GLI1-FLAG and Myc-SUFU; normalized lysates combined and pre-incubated 6 h; anti-FLAG M2 and anti-Myc 9b11 agarose, 16 h; Western blot.

On to SUFU-Δ (from UniProt Q9UMX1), for which the binding result is on record as “binds”.
